The values below come from PMC7471661.

Amino acid sequences for entries named in this document (tags omitted).
UniProt P49841: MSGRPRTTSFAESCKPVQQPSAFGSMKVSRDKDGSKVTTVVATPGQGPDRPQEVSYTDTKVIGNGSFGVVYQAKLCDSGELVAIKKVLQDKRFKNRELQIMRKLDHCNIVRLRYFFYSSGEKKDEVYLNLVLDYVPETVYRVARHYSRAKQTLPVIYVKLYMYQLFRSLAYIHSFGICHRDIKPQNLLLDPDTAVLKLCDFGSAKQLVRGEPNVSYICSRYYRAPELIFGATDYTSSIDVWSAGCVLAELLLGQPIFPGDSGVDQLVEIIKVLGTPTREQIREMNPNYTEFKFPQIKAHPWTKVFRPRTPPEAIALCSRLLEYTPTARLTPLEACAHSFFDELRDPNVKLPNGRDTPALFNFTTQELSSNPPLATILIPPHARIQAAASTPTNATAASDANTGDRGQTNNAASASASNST

Results are given in words; binding and its absence hold for the method and conditions named. In cells and extracts the contact can be indirect. Some binding calls cover weakened binding; strength is not graded here.

This assay concerns the target T1, peroxisome proliferator-activated receptor coactivator (PGC1α) (human (endogenous in H1299)) (UniProt Q9UBK2).
T1 sequence: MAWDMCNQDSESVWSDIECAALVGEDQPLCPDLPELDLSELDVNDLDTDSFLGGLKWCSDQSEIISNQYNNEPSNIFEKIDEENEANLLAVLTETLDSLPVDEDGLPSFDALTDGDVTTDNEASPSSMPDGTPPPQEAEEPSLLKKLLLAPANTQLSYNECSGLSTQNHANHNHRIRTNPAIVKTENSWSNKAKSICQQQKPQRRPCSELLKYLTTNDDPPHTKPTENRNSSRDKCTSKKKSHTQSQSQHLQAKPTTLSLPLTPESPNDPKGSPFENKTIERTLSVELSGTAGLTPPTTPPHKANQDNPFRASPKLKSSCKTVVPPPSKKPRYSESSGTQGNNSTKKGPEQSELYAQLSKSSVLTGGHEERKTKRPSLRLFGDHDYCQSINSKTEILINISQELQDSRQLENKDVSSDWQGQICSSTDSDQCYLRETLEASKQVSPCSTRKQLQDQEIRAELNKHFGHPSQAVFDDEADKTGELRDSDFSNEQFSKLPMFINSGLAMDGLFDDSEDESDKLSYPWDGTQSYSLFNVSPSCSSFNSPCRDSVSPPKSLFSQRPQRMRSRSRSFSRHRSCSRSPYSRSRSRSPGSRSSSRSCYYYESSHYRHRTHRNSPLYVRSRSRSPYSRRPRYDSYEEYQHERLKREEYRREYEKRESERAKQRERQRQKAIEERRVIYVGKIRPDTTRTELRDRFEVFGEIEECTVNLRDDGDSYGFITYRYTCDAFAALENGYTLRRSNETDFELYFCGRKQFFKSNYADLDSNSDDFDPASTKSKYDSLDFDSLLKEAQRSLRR
Kind of assay: co-IP; H1299 cells transfected with p53 or empty vector for 48 h, with or without GSK-3β inhibitor CHIR99021 (5 μM); NP40 lysis buffer; immunoprecipitation with anti-PGC1α antibody overnight at 4°C, protein A/G agarose beads; blot with anti-GSK-3β and anti-PGC1α.

For the substance “glycogen synthase kinase (GSK-3β) (from UniProt P49841 1-420) (enzyme)”, the binding result is listed as “binds”.
